From the supplement of paper PMC12067093, “Discovery and optimisation of a covalent ligand for TRIM25 and its application to targeted protein ubiquitination” (Chemical Science, 2025) come the findings set out here.

Amino acid sequences for entries named in this document (tags omitted). A change or cut given only in a name is not applied to a line headed by its entry.
UniProt Q8NCN5: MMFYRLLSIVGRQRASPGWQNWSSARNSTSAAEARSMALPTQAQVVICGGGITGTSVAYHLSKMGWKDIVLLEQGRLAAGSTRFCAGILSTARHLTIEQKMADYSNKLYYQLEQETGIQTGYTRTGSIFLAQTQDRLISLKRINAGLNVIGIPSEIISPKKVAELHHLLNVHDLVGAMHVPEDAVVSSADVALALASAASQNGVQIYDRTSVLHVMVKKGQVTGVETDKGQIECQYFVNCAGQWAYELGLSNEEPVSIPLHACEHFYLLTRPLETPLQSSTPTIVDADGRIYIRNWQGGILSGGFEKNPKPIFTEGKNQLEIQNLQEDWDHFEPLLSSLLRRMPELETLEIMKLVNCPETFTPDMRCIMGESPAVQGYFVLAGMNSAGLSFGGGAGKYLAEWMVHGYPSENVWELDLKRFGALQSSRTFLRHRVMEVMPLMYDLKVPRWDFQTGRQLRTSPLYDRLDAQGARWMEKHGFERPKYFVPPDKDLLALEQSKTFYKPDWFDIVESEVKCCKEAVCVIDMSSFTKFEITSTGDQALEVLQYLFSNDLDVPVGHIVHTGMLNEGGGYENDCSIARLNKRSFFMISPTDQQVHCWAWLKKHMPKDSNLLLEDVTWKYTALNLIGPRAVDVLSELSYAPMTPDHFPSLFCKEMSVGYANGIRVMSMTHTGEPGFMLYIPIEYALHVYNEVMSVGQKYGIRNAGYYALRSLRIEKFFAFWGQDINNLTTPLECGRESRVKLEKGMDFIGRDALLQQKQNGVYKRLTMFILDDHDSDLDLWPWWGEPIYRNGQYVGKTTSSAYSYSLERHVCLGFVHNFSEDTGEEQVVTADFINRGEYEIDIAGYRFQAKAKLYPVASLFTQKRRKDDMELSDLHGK
UniProt Q9UHG3: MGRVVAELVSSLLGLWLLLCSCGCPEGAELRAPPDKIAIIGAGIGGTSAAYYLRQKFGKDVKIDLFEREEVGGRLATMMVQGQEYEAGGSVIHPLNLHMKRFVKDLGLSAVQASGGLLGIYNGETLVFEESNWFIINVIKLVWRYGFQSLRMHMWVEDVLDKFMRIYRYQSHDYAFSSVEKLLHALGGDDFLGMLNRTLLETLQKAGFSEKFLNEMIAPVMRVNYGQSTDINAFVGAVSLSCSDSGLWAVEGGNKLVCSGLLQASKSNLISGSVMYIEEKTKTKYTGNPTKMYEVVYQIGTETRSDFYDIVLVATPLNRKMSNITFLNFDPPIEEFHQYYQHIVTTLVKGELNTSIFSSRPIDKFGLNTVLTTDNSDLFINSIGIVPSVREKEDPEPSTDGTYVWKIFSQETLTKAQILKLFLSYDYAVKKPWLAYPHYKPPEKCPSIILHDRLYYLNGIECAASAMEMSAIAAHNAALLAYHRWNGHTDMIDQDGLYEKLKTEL
UniProt P05165: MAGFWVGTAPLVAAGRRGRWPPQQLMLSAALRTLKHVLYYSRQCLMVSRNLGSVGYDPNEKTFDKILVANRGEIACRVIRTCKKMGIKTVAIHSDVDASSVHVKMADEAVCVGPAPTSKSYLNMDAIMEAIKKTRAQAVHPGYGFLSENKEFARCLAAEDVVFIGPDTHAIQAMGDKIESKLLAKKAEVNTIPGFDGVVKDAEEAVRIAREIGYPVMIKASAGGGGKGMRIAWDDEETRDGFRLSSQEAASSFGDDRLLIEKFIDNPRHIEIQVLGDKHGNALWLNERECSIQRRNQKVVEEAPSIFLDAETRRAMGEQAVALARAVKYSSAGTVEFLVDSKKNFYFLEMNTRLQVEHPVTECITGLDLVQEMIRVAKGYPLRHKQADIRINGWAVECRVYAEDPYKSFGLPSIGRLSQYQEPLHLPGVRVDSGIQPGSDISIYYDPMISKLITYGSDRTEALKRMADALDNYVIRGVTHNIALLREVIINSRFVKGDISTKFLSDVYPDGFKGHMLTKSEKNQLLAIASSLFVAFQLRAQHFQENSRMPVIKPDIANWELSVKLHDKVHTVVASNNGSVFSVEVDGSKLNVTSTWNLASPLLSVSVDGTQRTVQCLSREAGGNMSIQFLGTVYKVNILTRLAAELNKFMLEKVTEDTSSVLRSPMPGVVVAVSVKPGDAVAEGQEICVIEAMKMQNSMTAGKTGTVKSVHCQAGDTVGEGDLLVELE
UniProt O94913, whole entry, looked up: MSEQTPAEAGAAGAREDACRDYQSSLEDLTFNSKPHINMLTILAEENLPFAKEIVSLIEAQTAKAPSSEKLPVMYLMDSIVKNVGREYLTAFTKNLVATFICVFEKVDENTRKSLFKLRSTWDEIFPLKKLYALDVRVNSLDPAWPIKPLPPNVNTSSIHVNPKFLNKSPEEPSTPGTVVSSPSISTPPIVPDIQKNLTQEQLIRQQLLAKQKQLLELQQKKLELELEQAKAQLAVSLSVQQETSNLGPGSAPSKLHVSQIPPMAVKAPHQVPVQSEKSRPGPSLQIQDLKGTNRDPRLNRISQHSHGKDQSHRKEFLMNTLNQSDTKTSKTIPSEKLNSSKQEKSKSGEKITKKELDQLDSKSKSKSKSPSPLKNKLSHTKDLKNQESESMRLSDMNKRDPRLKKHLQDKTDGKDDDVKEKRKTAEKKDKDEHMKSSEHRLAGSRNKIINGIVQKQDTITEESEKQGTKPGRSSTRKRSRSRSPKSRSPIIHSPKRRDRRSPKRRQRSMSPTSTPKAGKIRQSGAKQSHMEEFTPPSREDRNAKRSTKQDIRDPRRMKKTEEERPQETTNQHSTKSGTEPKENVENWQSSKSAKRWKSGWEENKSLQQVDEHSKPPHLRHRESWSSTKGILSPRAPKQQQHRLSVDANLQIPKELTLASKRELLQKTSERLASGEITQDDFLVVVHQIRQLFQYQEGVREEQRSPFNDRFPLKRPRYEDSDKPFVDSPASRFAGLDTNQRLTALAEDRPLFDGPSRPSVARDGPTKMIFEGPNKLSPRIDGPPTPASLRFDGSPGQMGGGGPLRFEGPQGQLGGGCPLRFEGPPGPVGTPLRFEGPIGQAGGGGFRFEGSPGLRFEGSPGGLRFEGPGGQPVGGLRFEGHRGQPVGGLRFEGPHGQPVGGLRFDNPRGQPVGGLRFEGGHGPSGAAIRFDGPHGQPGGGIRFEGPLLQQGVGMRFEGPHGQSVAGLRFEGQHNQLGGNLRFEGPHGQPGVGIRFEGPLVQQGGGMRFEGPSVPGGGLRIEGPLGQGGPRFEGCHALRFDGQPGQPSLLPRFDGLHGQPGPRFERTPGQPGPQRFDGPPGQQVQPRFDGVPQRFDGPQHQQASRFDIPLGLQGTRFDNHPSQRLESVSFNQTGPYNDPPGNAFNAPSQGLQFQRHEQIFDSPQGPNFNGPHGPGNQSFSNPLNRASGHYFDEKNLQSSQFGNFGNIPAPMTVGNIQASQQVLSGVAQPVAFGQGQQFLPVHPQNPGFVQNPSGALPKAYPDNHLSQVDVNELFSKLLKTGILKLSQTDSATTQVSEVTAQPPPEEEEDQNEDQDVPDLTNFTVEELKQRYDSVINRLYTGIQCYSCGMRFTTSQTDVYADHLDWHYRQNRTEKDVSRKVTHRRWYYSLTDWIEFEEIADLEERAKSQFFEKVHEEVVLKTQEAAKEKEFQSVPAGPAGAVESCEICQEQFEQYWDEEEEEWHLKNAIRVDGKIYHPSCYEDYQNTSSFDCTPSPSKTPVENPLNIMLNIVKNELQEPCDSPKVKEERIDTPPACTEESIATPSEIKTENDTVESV
UniProt Q9HBH1: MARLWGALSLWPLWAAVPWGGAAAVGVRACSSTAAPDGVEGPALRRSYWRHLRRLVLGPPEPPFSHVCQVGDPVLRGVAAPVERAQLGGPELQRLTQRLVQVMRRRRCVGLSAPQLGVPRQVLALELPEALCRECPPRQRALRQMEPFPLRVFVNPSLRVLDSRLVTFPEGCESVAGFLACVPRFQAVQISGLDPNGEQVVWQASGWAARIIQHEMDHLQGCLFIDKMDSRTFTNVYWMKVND
UniProt Q15365, whole entry, looked up: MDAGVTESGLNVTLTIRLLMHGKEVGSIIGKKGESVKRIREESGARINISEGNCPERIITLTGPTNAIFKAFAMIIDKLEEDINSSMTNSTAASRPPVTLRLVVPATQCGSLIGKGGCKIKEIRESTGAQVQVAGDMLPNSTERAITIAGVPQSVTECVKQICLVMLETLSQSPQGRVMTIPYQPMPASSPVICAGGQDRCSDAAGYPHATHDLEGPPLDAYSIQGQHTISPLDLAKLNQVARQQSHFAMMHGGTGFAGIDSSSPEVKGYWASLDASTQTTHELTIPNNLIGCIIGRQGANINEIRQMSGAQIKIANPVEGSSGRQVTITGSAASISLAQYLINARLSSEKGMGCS
UniProt Q14554: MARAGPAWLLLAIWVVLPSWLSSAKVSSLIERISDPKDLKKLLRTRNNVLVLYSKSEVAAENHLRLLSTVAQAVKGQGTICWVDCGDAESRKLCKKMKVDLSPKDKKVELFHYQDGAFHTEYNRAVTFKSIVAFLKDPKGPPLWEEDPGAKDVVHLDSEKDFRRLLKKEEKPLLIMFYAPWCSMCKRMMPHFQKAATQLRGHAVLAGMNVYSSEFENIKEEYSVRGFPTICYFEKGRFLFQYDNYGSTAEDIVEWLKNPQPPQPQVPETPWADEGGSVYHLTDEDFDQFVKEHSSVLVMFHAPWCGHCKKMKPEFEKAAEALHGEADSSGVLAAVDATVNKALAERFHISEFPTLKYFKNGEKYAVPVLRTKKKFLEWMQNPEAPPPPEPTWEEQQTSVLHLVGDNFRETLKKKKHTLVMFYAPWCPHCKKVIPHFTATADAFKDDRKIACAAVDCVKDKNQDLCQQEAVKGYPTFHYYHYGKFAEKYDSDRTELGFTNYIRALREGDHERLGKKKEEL
UniProt P13667: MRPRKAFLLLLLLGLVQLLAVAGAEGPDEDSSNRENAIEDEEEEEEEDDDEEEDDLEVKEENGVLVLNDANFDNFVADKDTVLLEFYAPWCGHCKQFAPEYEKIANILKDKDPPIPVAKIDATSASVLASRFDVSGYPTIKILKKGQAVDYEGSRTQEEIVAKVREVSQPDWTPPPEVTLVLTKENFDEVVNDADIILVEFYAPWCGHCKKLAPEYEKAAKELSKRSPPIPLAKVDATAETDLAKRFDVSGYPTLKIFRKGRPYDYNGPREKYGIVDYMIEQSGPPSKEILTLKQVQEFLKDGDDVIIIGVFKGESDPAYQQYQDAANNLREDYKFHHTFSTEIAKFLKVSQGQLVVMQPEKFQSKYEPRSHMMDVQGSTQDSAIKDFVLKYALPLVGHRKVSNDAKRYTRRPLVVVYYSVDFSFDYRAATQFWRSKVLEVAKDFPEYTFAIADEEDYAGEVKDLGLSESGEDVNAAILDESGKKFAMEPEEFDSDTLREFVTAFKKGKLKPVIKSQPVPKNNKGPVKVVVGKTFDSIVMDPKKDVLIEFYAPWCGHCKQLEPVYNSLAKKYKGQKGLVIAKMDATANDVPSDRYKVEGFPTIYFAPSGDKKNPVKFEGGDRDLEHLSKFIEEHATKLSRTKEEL
UniProt Q9NR12, whole entry, looked up: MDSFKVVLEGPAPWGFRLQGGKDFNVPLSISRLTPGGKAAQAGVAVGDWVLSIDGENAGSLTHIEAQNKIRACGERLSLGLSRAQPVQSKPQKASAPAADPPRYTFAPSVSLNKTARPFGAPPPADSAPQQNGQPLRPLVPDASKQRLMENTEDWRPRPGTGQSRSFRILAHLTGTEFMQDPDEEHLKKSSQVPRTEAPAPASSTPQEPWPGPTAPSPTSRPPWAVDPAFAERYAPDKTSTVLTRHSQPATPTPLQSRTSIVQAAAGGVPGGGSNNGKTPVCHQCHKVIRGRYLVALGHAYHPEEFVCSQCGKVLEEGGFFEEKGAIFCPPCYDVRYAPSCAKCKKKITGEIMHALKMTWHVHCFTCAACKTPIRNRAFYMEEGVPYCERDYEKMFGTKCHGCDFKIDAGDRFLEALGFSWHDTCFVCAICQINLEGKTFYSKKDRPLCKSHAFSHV
UniProt Q9BUH6, whole entry, looked up: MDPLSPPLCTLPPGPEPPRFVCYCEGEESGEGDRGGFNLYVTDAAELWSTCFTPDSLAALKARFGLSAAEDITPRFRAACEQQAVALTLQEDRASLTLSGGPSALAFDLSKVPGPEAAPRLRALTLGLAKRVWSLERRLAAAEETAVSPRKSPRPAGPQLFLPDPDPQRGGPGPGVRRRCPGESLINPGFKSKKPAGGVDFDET
UniProt P30101, whole entry, looked up: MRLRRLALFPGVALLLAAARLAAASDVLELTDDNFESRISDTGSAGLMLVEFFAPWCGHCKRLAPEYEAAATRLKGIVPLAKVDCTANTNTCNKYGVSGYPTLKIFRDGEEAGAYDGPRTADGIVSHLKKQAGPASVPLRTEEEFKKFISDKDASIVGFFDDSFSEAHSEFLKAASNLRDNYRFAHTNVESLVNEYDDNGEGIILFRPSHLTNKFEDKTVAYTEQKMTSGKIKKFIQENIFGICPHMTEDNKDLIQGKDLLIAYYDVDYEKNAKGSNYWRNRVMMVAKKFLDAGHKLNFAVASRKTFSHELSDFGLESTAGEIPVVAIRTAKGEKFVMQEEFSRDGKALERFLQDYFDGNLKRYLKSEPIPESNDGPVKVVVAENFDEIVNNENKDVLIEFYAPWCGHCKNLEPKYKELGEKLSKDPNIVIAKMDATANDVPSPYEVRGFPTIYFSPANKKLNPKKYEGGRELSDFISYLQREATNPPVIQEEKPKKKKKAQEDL

Compound in this assay: Cc1cc(ccc1-c1ccccc1)C(=O)N1CCCN(CC1)C(=O)CCl [compound 10]
The experiment in a line: probe-labelled cysteine peptide fold change vs DMSO (competition) (log2 fold change); higher = less target engagement (more negative = stronger competition). As to conditions: THP-1, incubation time: 4 h.

The list shows a part of the results.
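Further: competitive profiling in live THP-1 cells: cysteine peptides tagged with an iodoacetamide desthiobiotin (IA-DTB) probe, intensity after compound treatment relative to DMSO-treated cells.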

For the target “PDPR_Q8NCN5_598_SFFMISPTDQQVHCWAWLK (UniProt Q8NCN5)”, the “probe-labelled cysteine peptide fold change” value (10 µM) is -0.226 and the “probe-labelled cysteine peptide fold change” value (50 µM) was -0.0911.

Take “PCYOX1_Q9UHG3_445_CPSIILHDR (UniProt Q9UHG3)”: the “probe-labelled cysteine peptide fold change” value reads like this: (10 µM) -0.0279; (50 µM) 0.322.

Regarding “PCCA_P05165_363_LQVEHPVTECITGLDLVQEMIR (UniProt P05165)”, the “probe-labelled cysteine peptide fold change” value by setting is: (10 µM) 0.011; (50 µM) 0.316.

Regarding “PCF11_O94913_1346_LYTGIQCYSCGMR (UniProt O94913)”, the “probe-labelled cysteine peptide fold change” value is, setting by setting: (10 µM) 0.117; (50 µM) 0.154.

Take “PDS5A_Q29RF7_1093_SALCNADSPKDPVLPMK (UniProt Q29RF7)”: the “probe-labelled cysteine peptide fold change” value (10 µM) is -0.0652 and the “probe-labelled cysteine peptide fold change” value (50 µM) was -0.516.

As to “PDF_Q9HBH1_222_IIQHEMDHLQGCLFIDK (UniProt Q9HBH1)”, the “probe-labelled cysteine peptide fold change” value (10 µM) was found to be 0.00861 and the “probe-labelled cysteine peptide fold change” value (50 µM) is -0.0472.

For the target “PCBP1_Q15365_293_GYWASLDASTQTTHELTIPNNLIGCIIGR (UniProt Q15365)”, the “probe-labelled cysteine peptide fold change” value (10 µM) was 0.167 and the “probe-labelled cysteine peptide fold change” value (50 µM) was determined as 0.267.

As for “PDIA5_Q14554_231_GFPTICYFEK (UniProt Q14554)”, the “probe-labelled cysteine peptide fold change” value runs as follows: (10 µM) 0.0867; (50 µM) -0.162.

With “PDF_Q9HBH1_172+181_LVTFPEGCESVAGFLACVPR (UniProt Q9HBH1)”, the “probe-labelled cysteine peptide fold change” value is -0.074 (10 µM) and 0.0366 (50 µM).

For “PDIA4_P13667_91_DTVLLEFYAPWCGHCK (UniProt P13667)”, the “probe-labelled cysteine peptide fold change” value by setting is: (10 µM) -0.275; (50 µM) -0.932.

Consider “PDLIM7_Q9NR12_285_TPVCHQCHK (UniProt Q9NR12)”, for which the “probe-labelled cysteine peptide fold change” value was 0.0922 (10 µM) and -0.0628 (50 µM).

For “PAXX_Q9BUH6_80_AACEQQAVALTLQEDR (UniProt Q9BUH6)”, the “probe-labelled cysteine peptide fold change” value worked out at 0.0589 (10 µM) and 0.192 (50 µM).

“PDIA5_Q14554_456_IACAAVDCVK (UniProt Q14554)”: the “probe-labelled cysteine peptide fold change” value (10 µM) was -0.104 and the “probe-labelled cysteine peptide fold change” value (50 µM) was -0.338.

Turning to “PDIA3_P30101_244_FIQENIFGICPHMTEDNK (UniProt P30101)”, the “probe-labelled cysteine peptide fold change” value (10 µM) was -0.147 and the “probe-labelled cysteine peptide fold change” value (50 µM) was -0.104.
